# Measurements taken from PMC5773651, “Customised in vitro model to detect human metabolism-dependent idiosyncratic drug-induced liver injury” (Archives of Toxicology, 2017).
# System: HepG2 cells transduced with AdCYP2E1
# Test: Cell viability (PI), IC50, AdCYP2E1-HepG2
# Type: cell-based, human
# Conditions: IC50 control / IC50 ADV CYP2E1 x10
# Experimental: For subculturing purposes, cells were detached by treatment with 0.25% trypsin/0.02% EDTA at 37 °C. For the adenovirus infection studies, cells were seeded in 96-well plates (5000 cells/well) and adenovirus-containing medium was added 48 h later. After 24 h, cells were transferred to the adenovirus-free medium and cultured for an additional 24-h period prior to the incubations performed with the test chemicals. To optimise the expression of the functional enzymes in the adenovirus-transduced HepG2 (Ad-HepG2) cells, different doses (MOI, multiplicity of infection, defined as plaque formation units per cell) of each adenovirus were tested.
# The drugs included in the study were chosen based on previous information about their hepatotoxicity. […] Each experimental condition was repeated independently three times (with three wells measured each time). […]
# After incubating with dyes, cells were imaged by the Scan^R system (Olympus, Germany). Dyes were excited, and their fluorescence was monitored at the excitation and emission wavelengths at appropriate filter settings. The collected images were analysed using the Scan^R analysis module, which allows the simultaneous quantification of subcellular structures that are stained by different fluorescent probes.
smiles,measurement,value
NNC(=O)c1ccncc1 [Isoniazid],C/x10 ratio,1.3
